# Experimental data: PMC9998662
# By UniProt entry, the sequences of proteins in these tests, tags left out.
# UniProt P70429: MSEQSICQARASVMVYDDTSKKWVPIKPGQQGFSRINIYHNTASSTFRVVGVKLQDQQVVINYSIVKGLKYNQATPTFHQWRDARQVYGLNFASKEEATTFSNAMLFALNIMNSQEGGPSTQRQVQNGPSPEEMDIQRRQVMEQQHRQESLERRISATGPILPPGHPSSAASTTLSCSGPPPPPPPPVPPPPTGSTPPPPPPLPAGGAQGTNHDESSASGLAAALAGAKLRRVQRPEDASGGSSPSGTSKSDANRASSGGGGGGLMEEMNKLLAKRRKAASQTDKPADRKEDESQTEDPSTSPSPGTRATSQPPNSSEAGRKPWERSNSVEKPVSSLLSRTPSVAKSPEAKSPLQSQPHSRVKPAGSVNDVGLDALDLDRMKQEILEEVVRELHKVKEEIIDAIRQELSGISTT
# These are yes or no findings as the source states them, for the method shown. In cells and extracts the contact can be indirect. A yes stands for co-enrichment or nearness to the bait. Other partners may have been found.
# Target: EVL (endogenous, primary mouse cortical neuron cultures) (mouse (endogenous in primary cortical neuron cultures)) (UniProt P70429)
# Assay: affinity purification with mass spectrometry; endogenous EVL precipitated with mouse monoclonal anti-EVL (control: mouse IgG) from lysates of D11 primary mouse cortical neuron cultures; IP buffer 10% glycerol, 1% NP-40, 50 mM Tris pH 7.5, 200 mM NaCl, 2 mM MgCl2; overnight at 4°C; Protein A/G beads; in-gel digestion, LC-MS/MS
binder,measurement,value
"MIM/MTSS1 (endogenous, primary mouse cortical neuron cultures) (protein, UniProt Q8R1S4 1-759) MEAVIEKECSALGGLFQTIISDMKGSYPVWEDFINKAGKLQSQLRTTVVAAAAFLDAFQKVADMATNTRGGTREIGSALTRMCMRHRSIEAKLRQFSSALIDCLINPLQEQMEEWKKVANQLDKDHAKEYKKARQEIKNKSSDTLKLQKKAKKVDAQGRGDIQPQLDSALQDVNDKYLLLEETEKQAVRKALIEERGRFCTFISMLRPVIEEEISMLGEITHLQTISEDLKSLTMDPHKLPSSSEQVILDLKGSDYSWSYQTPPSSPSTTMSRKSSVCSSLNSVNSSDSRSSGSHSHSPSSHYRYRSSNLAQQAPVRLSSVSSHDSGFISQDAFQSKSPSPMPPEAANQLSNGFSHCSLSSESHAGPVGAGPFPHCLPASRLLPRVTSVHLPDYAHYYTIGPGMFPSSQIPSWKDWAKPGPYDQPLVNTLQRRKEKREPDSNGGGPTTTGGPPAGAEEAQRPRSMTVSAATRPGEEMAACEELTLALSRGLQLDVQRSSRDSLQCSSGYSTQTTTPCCSEDTIPSQVSDYDYFSVSGDQEAEQQEFDKSSTIPRNSDISQSYRRMFQAKRPASTAGLPTTLGPAMVTPGVATIRRTPSTKPSVRRGTIGAGPIPIKTPVIPVKTPTVPDLPGVLPSPPDGPEERGEHSPESPSAGEGPQGVSNIPSSLWSGQAPVNPPLPGPKPSIPEEHRQAIPESEAEDQERDPPSATVSPGPIPESDPADLSPRESPQGEDMLNAIRRGVKLKKTTTNDRSAPRFS",binding,binds
